No constants are given. Whether binding was seen depends on the method and setting. In cells and extracts the contact can be indirect. Some results given as binding are weak or reduced against the parent protein; the word gives no strength.
Target: Human cytomegalovirus immediate-early protein 1 (human cytomegalovirus (HCMV)) (UniProt P13202)
Experiment: co-IP

Sequences of proteins named here, by UniProt entry; tags and fusion partners are left off.
UniProt P13202: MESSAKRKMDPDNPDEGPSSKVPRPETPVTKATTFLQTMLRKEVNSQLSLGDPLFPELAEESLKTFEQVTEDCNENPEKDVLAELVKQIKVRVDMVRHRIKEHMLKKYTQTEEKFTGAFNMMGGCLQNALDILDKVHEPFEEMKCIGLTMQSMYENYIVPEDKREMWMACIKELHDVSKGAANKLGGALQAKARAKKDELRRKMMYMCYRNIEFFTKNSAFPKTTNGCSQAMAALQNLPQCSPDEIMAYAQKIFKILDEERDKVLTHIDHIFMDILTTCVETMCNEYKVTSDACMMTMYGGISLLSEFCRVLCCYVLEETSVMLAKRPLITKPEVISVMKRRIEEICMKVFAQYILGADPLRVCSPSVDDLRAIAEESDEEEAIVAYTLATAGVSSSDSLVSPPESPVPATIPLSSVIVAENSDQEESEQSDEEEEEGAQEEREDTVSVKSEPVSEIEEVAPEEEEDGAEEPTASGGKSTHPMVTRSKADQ
UniProt P52756: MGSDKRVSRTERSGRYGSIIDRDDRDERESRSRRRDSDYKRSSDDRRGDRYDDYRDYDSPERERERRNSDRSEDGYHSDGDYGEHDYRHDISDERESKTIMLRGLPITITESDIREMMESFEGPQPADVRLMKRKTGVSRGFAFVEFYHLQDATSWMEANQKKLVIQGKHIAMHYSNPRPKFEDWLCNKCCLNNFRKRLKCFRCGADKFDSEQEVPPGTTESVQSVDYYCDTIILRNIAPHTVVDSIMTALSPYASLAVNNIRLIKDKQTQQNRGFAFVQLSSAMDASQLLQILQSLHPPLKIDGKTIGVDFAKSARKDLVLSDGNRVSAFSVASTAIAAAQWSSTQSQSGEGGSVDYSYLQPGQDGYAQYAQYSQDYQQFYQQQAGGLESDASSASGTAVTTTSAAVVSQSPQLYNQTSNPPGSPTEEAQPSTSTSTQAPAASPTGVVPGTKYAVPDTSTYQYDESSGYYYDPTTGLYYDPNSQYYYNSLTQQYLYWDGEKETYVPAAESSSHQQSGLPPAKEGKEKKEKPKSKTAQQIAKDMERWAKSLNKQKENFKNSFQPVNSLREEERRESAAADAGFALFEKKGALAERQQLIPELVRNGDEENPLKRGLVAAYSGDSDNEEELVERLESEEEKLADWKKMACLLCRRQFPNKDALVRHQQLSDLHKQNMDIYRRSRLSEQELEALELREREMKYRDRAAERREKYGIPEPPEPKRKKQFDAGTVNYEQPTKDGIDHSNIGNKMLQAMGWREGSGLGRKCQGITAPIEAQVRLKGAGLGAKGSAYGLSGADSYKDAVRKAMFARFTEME
UniProt P98175: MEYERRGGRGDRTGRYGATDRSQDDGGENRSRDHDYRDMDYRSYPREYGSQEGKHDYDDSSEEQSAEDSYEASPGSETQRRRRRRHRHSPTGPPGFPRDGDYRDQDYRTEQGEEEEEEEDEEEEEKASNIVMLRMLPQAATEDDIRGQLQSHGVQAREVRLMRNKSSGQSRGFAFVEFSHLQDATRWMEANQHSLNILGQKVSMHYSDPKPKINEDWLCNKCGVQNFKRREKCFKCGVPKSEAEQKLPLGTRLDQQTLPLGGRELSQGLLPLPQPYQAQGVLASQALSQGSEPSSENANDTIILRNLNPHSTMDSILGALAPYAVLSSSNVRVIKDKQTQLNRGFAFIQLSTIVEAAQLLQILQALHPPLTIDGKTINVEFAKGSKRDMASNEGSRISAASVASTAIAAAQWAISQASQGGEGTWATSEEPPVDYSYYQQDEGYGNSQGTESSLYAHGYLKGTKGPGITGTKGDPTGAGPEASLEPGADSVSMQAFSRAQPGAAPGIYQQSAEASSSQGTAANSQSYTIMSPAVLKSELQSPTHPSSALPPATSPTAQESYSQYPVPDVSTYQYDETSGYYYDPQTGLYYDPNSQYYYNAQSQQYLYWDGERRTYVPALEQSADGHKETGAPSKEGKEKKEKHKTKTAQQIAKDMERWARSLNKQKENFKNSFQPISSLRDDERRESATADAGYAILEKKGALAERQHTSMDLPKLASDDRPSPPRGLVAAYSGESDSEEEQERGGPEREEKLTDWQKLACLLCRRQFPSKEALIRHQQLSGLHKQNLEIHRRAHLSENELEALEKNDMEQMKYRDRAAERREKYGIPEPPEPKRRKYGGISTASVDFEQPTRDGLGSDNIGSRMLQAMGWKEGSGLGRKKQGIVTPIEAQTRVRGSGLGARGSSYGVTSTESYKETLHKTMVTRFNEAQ

Row | Substance | binding
1 | RBM5 (from UniProt P52756 1-815) | binds
2 | RBM 10 (from UniProt P98175 1-930) | binds

Reference: paper PMC3917433
